# Results: PubChem BioAssay AID504842 (National Center for Advancing Translational Sciences (NCATS), 2011)
# The campaign covered roughly 330,000 compounds. About 100 (0.03%) were called active. Inconclusive results, whose numbers are uncertain, are shown with a selection of clear calls. Calls follow the shape of the dose curve; as a rule, active = well fitted inhibition curve with a large enough effect; inconclusive = small, poorly fitted or top-dose-only effect; inactive = flat fitted curve, though single readings scatter. A potency beside an inconclusive call is a rough fit, not a confirmed value.
# System: Chaperonin Mm-Cpn (Methanococcus maripaludis)
# Experiment: Inhibitors of TCP-1 ring complex (TRiC) of Methanococcus maripaludis (MmCpn): qHTS; also: nearly all actives have a fitted effect of over 80% in size;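 as to potency: enzyme at 25 nM with ATP substrate at 10 µM during the reaction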
# Conditions: purified Mm-Cpn ATPase, ADP Transcreener TR-FRET
# Procedure, shortened: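 ATP (10 uM final) was added to archaeal chaperonin (25 nM final) after 10 min exposure to test compound at 37°C; after 30 min further incubation, ADP was detected by competitive TR-FRET.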
# Potency is read from the fitted curve at half-maximal effect.
row,Compound,Potency
1,Cc1ccccc1S(=O)(=O)Cc1ccc(C(=O)NCCc2ccccc2)o1,"inconclusive: 100 µM [inhibitor, partial curve, poor fit]"
2,CCOc1ccccc1Nc1nc(-c2sc(NC(=O)c3ccco3)nc2C)cs1,"inconclusive: 79.4 µM [inhibitor, single point]"
3,Cc1cc(C)c2c(c1)cc(C)c1nnc(SCC(=O)Nc3ccccc3N3CCOCC3)n12,inactive
4,COc1ccc(-c2cc(C(=O)O)sc2C)cc1,inactive
5,COc1ccc(C2(CNS(=O)(=O)c3ccccc3)CCOCC2)cc1,"inconclusive: 25.1 µM [inhibitor, single point]"
6,Oc1ccc2ccccc2c1CNc1ccc(Br)cc1,inactive
7,O=C(NC1CCS(=O)(=O)C1)c1ccc(S(=O)(=O)N2CCCC2)cc1 (stereo unspecified),"inconclusive: 501 µM [inhibitor, partial curve, poor fit]"
8,CCOC(=O)C1CCCN(c2ncnc3c2oc2ccccc23)C1 (stereo unspecified),inactive
9,O=C(CCSc1nnc(-c2ccncc2)o1)Nc1ccc(Cl)cc1,"inconclusive: 10 µM [inhibitor, single point]"
10,O=[N+]([O-])c1cccc(-c2nnc(CNC3CC3)o2)c1,"inconclusive: 100 µM [inhibitor, single point]"
11,COc1ccc(NC(=O)Nc2ccc(F)cc2F)c(C)c1,"inconclusive: 89.1 µM [inhibitor, single point]"
12,COC(=O)c1ccc(CO/N=C/c2ccccc2OC)cc1,"inconclusive: 79.4 µM [inhibitor, single point]"
13,Cc1nc2c(C(=O)N3CCOCC3)cnn2c(C)c1Cc1ccc(Cl)cc1,inactive
14,C=CCc1ccccc1OCC(O)CNC(=O)c1ccccc1C(=O)O (stereo unspecified),"inconclusive: 158 µM [inhibitor, partial curve, poor fit]"
15,CC(C(=O)Nc1cccc(C#N)c1)N(C)CCOc1ccccc1 (stereo unspecified),"inconclusive: 50.1 µM [inhibitor, single point]"
16,Cn1cc(CN2CCN(c3ccccc3)CC2)c2ccccc21,inactive
17,Cc1ccccc1-c1nnc(SCc2ccccc2F)o1,inactive
18,CC1CCCC(NC(=O)CSc2n[nH]c(N)n2)C1C (stereo unspecified),"inconclusive: 89.1 µM [inhibitor, single point]"
19,CCN(CC)S(=O)(=O)c1ccc(C)c(NC(=O)COC(=O)[C@@H]2CCCN2C(=O)c2cccs2)c1,"inconclusive: 20 µM [inhibitor, single point]"
20,Cc1ccc(-c2csc3n[nH]c(=S)n23)cc1,inactive
21,COc1ccc(C2C3=C(N=C4SCC(=O)N42)c2ccccc2CC3)cc1OC (stereo unspecified),"inconclusive: 14.1 µM [inhibitor, single point]"

# Individual results from the results shown:
# In Potency, CC(C(=O)Nc1cccc(C#N)c1)N(C)CCOc1ccccc1 (stereo unspecified) shows inconclusive: 50.1 µM [inhibitor, single point]
# In Potency, COc1ccc(C2(CNS(=O)(=O)c3ccccc3)CCOCC2)cc1 shows inconclusive: 25.1 µM [inhibitor, single point]
